Source: PMC3411645
These are yes or no findings as the source states them, for the method shown. In cells and extracts the contact can be indirect. Some results given as binding are weak or reduced against the parent protein; the word gives no strength.

Target: HA-tagged hERG1a (wild type) (human) (UniProt Q12809)
Test: co-IP; double-stable Flp-Cre cells co-expressing hERG1a-HA and a Flag-tagged hERG1 isoform at a 1:1 ratio (both CMV promoter); lysis in 10 mM Tris-HCl pH 8.0, 150 mM NaCl, 5 mM EDTA, 1% Triton X-100, 1 mg/ml BSA; IP with anti-HA, blot with anti-Flag

Substance	binding
Flag-tagged hERG1b (wild type) (from UniProt Q12809-2 1-819)	binds
HA-tagged hERG1a (wild type) (from UniProt Q12809 1-1159)	binds
